Results reported in publication PMC9950143 (Scientific Reports, 2023).

Legend:
HeLa cells = conditions: human
[1] = human plasma maximum concentration; ref [1]–[19]; cited from earlier work

## O=C(O)c1cn(C2CC2)c2cc(N3CCNCC3)c(F)cc2c1=O [Ciprofloxacin]
HeLa cells
  RDV CC50 when combination: > 2.5 µM
  RDV CC50 when in combination: > 2.5 µM
[1]
  Cmax: 4600 [8] ng/mL

## CN1C(=O)CN=C(c2ccccc2)c2cc(Cl)ccc21 [Diazepam]
HeLa cells
  RDV CC50 when combination: > 2.5 µM
  RDV CC50 when in combination: > 2.5 µM
[1]
  Cmax: 492 [9] ng/mL
